Data taken from the supplement of paper PMC10849652.
Some of the results follow.

Amino acid sequences for entries named in this document (tags omitted). A change or cut given only in a name is not applied to a line headed by its entry.
UniProt P0DMU8: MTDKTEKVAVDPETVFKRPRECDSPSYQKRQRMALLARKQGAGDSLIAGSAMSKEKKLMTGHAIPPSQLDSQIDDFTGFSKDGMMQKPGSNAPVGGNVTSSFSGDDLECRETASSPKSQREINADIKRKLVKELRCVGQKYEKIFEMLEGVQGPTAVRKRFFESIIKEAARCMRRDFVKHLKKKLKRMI
UniProt Q13561, whole entry, looked up: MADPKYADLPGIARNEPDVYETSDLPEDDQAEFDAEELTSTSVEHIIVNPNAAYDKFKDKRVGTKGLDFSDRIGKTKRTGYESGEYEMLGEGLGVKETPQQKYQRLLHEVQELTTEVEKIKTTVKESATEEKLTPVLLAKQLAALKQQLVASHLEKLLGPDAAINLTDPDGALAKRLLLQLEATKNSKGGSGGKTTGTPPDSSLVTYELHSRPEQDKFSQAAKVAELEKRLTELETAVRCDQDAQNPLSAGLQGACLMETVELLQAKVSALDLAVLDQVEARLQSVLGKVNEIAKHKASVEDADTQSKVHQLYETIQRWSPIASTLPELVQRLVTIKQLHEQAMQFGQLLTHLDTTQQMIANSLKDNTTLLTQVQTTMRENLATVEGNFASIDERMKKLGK
UniProt Q13619, whole entry, looked up: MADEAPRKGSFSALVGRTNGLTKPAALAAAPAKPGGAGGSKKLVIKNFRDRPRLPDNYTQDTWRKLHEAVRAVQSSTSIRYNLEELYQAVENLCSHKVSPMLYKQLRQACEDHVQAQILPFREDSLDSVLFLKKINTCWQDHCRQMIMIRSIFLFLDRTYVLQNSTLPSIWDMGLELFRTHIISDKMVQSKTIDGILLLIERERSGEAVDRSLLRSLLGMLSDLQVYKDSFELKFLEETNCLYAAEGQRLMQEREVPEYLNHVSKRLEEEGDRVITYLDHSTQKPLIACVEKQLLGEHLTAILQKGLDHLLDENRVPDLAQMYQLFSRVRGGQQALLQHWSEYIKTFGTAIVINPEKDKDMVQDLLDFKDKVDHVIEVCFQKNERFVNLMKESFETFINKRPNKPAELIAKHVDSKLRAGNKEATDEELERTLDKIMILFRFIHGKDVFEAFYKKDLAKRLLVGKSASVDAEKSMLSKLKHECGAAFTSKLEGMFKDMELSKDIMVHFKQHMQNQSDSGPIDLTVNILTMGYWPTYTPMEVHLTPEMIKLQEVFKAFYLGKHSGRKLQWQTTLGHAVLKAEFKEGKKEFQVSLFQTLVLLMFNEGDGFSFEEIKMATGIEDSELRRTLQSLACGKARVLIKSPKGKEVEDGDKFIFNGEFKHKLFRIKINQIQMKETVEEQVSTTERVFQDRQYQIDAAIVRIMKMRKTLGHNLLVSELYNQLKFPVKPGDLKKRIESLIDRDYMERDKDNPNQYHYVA
UniProt Q8WUE5: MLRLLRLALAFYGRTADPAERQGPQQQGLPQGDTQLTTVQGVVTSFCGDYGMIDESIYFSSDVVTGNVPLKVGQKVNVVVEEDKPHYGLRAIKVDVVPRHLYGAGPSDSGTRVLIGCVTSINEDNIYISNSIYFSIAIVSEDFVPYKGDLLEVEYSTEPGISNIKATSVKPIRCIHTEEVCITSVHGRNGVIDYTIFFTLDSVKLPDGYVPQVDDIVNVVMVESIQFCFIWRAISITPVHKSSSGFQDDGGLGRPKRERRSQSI
UniProt O00399, whole entry, looked up: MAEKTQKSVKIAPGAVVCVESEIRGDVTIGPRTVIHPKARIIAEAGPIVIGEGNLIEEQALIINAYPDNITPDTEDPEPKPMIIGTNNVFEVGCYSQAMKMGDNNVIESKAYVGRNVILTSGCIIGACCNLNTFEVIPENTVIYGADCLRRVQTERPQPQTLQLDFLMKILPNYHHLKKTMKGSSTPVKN
UniProt Q1MSJ5: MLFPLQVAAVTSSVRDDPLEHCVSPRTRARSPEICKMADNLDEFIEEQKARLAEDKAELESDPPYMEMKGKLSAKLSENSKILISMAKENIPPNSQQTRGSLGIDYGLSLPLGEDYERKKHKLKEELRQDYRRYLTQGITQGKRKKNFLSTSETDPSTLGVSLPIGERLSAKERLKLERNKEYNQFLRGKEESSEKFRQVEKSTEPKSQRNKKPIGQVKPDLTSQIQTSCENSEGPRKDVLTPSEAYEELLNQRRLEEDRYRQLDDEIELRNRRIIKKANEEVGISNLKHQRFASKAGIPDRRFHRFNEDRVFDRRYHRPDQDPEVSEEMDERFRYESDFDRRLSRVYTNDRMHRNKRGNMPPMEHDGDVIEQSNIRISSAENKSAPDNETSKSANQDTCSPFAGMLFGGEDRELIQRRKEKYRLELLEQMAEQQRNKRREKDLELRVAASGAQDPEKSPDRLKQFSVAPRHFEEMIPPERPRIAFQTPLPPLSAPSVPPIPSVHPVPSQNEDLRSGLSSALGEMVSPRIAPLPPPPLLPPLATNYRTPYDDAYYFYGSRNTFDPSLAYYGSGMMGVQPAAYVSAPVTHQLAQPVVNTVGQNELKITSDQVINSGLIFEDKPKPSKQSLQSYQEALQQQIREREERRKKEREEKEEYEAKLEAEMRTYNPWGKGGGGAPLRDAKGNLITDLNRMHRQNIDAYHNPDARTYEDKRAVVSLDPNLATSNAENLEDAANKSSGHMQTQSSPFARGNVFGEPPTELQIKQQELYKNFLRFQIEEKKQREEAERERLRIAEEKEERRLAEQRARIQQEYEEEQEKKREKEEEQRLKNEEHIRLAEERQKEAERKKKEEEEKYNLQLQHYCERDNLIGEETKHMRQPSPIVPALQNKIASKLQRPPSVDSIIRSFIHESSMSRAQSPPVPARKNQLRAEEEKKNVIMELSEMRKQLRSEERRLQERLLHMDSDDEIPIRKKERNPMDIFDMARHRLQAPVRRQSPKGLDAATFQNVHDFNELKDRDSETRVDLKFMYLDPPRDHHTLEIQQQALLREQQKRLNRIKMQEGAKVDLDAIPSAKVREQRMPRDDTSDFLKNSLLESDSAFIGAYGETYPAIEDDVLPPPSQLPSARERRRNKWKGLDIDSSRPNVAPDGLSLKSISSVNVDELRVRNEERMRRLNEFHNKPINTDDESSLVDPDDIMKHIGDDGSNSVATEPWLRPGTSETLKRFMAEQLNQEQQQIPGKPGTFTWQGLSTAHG
UniProt Q96C57: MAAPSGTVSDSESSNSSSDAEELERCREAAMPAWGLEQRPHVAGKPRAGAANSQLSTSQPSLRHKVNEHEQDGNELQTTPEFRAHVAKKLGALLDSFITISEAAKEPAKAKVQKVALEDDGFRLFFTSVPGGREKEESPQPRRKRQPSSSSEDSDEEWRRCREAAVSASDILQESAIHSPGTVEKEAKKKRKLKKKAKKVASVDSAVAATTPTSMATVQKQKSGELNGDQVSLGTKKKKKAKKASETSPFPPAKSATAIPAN
UniProt O75935, whole entry, looked up: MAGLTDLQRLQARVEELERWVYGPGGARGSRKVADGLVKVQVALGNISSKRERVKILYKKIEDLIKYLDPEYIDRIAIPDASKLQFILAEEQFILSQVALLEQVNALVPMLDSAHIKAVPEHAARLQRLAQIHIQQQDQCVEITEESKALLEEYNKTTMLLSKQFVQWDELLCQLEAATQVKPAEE
UniProt P17812: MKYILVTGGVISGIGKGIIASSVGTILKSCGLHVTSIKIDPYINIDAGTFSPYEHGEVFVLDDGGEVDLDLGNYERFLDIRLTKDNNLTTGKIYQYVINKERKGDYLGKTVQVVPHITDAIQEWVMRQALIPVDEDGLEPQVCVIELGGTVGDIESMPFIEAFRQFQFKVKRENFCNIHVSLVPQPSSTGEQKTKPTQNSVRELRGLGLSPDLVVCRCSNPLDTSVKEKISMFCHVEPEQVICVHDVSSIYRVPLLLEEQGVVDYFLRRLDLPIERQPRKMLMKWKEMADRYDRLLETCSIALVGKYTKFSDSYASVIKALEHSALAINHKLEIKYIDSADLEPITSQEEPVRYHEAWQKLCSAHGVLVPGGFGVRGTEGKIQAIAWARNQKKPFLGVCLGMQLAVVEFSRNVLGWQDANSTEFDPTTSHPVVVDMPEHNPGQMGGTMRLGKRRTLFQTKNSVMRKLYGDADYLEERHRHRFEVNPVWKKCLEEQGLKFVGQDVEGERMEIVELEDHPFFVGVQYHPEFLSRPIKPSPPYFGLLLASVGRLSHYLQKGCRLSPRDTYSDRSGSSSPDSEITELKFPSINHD
UniProt Q2VPK5: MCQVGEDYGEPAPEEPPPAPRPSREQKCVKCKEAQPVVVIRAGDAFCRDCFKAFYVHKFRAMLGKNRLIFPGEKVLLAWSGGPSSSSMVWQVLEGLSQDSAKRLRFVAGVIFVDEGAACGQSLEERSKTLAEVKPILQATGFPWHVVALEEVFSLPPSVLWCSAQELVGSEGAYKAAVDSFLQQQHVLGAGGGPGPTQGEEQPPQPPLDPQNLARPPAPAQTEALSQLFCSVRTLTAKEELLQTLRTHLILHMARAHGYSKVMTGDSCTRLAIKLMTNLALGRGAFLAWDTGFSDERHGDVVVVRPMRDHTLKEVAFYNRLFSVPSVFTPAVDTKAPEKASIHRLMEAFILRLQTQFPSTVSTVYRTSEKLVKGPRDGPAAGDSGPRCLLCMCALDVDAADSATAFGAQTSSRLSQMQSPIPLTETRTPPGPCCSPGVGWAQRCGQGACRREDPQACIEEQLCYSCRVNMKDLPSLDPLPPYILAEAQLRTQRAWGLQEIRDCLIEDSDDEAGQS
UniProt P27707: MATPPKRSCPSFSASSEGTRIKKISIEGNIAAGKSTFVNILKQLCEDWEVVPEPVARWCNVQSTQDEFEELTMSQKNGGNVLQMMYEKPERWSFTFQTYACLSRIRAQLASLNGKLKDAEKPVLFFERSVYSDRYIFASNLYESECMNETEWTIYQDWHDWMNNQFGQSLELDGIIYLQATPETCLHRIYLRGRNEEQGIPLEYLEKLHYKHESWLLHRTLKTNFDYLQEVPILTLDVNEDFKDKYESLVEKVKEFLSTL
UniProt O60716: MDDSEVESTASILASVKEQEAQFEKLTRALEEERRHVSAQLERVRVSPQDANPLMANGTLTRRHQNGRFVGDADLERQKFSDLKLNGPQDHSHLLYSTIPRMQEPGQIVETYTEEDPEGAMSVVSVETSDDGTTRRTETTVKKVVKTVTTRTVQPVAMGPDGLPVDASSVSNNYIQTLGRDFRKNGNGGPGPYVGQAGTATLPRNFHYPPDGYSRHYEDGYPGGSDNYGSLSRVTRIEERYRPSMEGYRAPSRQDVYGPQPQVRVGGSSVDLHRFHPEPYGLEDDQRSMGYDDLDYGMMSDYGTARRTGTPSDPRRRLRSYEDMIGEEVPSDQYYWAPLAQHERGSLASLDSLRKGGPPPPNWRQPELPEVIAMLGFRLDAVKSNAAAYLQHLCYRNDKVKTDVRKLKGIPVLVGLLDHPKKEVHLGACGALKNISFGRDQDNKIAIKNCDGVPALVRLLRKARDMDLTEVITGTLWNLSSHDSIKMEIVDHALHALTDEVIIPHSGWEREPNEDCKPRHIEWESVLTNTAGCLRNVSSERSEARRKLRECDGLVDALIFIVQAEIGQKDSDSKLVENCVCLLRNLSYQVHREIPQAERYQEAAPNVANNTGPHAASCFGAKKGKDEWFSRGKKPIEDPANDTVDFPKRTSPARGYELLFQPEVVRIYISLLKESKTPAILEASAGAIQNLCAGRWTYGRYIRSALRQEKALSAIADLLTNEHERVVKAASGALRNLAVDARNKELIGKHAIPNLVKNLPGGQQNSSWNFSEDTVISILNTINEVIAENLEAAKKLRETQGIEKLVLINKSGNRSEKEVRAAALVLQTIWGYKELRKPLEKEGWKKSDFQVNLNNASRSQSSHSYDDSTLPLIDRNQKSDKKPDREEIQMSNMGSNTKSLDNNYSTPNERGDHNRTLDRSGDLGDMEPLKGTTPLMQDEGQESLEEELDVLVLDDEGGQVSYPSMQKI
UniProt P07108: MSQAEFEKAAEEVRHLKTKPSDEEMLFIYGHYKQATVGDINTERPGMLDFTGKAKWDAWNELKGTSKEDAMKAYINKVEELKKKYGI
UniProt Q9NRF8: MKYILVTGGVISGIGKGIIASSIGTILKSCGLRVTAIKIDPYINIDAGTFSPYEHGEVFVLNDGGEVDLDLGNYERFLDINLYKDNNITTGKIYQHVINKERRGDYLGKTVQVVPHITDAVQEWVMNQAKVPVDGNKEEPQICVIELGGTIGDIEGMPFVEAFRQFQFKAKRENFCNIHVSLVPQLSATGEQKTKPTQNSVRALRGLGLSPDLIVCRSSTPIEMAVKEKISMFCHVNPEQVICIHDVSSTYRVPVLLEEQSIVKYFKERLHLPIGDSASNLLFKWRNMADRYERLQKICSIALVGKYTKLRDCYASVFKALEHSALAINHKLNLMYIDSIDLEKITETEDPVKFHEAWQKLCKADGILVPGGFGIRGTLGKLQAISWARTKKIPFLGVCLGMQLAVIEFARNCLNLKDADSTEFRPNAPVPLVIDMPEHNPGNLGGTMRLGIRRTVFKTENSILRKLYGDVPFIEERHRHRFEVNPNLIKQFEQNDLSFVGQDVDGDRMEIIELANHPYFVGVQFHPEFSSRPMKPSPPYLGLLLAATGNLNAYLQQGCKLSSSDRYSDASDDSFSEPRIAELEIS

Experiments:
Test in all cases: log2 fold change, soluble protein after heating vs DMSO (PISA); higher = thermal stabilisation; K562 cells, 10 uM, 30 min; active = over 0.2 and 3.5 SD of the protein, either way, in both replicates (recomputed)
[1] = compound: CS(=O)(=O)c1ccc(-c2cnc(N)c(C(=O)Nc3ccccc3)n2)cc1
In short: (§1)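 Thermal stability values are relative to control samples and come from duplicates. They are expressed as log2 fold changes. For measurement, K562 cells (2×10^6 cells/mL) received 10 μM compound for 30 min, and aliquots were heated for 3 min over 48°C-58°C, pooled, and extracted at 4°C in PBS with 0.5% NP-40. Soluble protein, the supernatant after 21,000xg for 90 min, was quantified by TMTpro 16plex LC-MS/MS with equalised channel sums.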

crizotinib = compound: C[C@@H](Oc1cc(-c2cnn(C3CCNCC3)c2)cnc1N)c1c(Cl)ccc(F)c1Cl [crizotinib]
In short: as §1

[2] = compound: C[C@@H]1COCCN1C2=NC(=NC(=C2)C3(CC3)S(=O)(=O)C)C4=C5C=CNC5=CC=C4
In short: as §1

[3] = compound: C[C@H](C1=CC=C(C=C1)C(=O)NC2=C3C=CNC3=NC=C2)N
In short: as §1

duvelisib = compound: C[C@H](Nc1ncnc2nc[nH]c12)c1cc2cccc(Cl)c2c(=O)n1-c1ccccc1 [duvelisib]
In short: as §1

gandotinib = compound: Cc1cc(Nc2cc(CN3CCOCC3)c3nc(C)c(Cc4ccc(Cl)cc4F)n3n2)n[nH]1 [gandotinib]
In short: as §1

tozasertib = compound: Cc1cc(Nc2cc(N3CCN(C)CC3)nc(Sc3ccc(NC(=O)C4CC4)cc3)n2)n[nH]1 [tozasertib]
In short: as §1

[4] = compound: Cc1cc(SCc2sc(-c3ccc(C(F)(F)F)cc3)nc2C)ccc1OCC(=O)O
In short: as §1

doramapimod = compound: Cc1ccc(-n2nc(C(C)(C)C)cc2NC(=O)Nc2ccc(OCCN3CCOCC3)c3ccccc23)cc1 [doramapimod]
In short: as §1

ispinesib = compound: Cc1ccc(C(=O)N(CCCN)[C@@H](c2nc3cc(Cl)ccc3c(=O)n2Cc2ccccc2)C(C)C)cc1 [ispinesib]
In short: as §1

Measured: log2 fold change

CT45A5 (UniProt P0DMU8)
inactive: [1] -0.058 | crizotinib 0.028 | [2] -0.2 | [3] 0.127 | duvelisib -0.157 | gandotinib 0.052 | tozasertib 0.055 | [4] -0.038 | doramapimod 0.073 | ispinesib 0.046

CYB5R2 (UniProt Q6BCY4)
inactive: [1] 0.025 | crizotinib 0.055 | [2] 0.054 | [3] 0.053 | duvelisib 0.022 | gandotinib 0.061 | tozasertib -0.033 | [4] -0.057 | doramapimod 0.018 | ispinesib -0.009

DCTN2 isoform 2 (UniProt Q13561)
inactive: [1] -0.001 | crizotinib 0.037 | [2] 0.008 | [3] -0.021 | duvelisib -0.017 | gandotinib -0.055 | tozasertib 0.077 | [4] 0.05 | doramapimod -0.019 | ispinesib 0.006

CUL4B (UniProt K4DI93)
inactive: [1] 0.031 | crizotinib 0.029 | [2] 0.072 | [3] -0.135 | duvelisib 0.003 | gandotinib -0.064 | tozasertib 0.018 | [4] 0.013 | doramapimod -0.044 | ispinesib 0.094

CUL4A (UniProt Q13619)
inactive: [1] 0.068 | crizotinib -0.008 | [2] 0.018 | [3] -0.057 | duvelisib 0.038 | gandotinib -0.044 | tozasertib 0.01 | [4] 0.017 | doramapimod -0.012 | ispinesib 0.049

CT55 (UniProt Q8WUE5)
inactive: [1] 0.022 | crizotinib -0.025 | [2] 0 | [3] -0.048 | duvelisib 0.045 | gandotinib -0.169 | tozasertib -0.019 | [4] -0.01 | doramapimod 0.037

CTBP2 isoform 2 (UniProt P56545)
inactive: [1] -0.038 | crizotinib 0.053 | [2] 0.002 | [3] -0.062 | duvelisib 0.034 | gandotinib -0.03 | tozasertib -0.017 | [4] -0.031 | doramapimod 0 | ispinesib 0.005

D2HGDH (UniProt Q8N465)
inactive: [1] 0.055 | crizotinib 0.07 | [2] 0.046 | [3] 0.012 | duvelisib -0.02 | gandotinib 0 | tozasertib 0 | [4] -0.018 | doramapimod 0.024 | ispinesib 0.003

DCTN6 (UniProt O00399)
inactive: [1] 0.024 | crizotinib 0.067 | [2] -0.029 | [3] -0.029 | duvelisib -0.046 | gandotinib 0.012 | tozasertib -0.032 | [4] -0.006 | doramapimod -0.02 | ispinesib 0.188

CXorf56 (UniProt Q9H5V9)
inactive: [1] 0 | crizotinib 0.051 | [2] -0.022 | [3] -0.041 | duvelisib 0.034 | gandotinib 0.008 | tozasertib 0.001 | [4] -0.001 | doramapimod 0.004 | ispinesib 0.015

CSPP1 (UniProt Q1MSJ5)
inactive: [1] 0.027 | crizotinib -0.053 | [2] -0.021 | [3] 0.102 | duvelisib -0.047 | gandotinib -0.027 | tozasertib -0.06 | [4] -0.116 | doramapimod 0.068 | ispinesib -0.101

CUSTOS (UniProt Q96C57)
inactive: [1] -0.038 | crizotinib 0.018 | [2] -0.081 | [3] -0.04 | duvelisib 0.05 | gandotinib -0.001 | tozasertib 0.028 | [4] -0.045 | doramapimod 0.029 | ispinesib 0.062

CUTC (UniProt Q9NTM9)
inactive: [1] 0.036 | crizotinib -0.005 | [2] 0.011 | [3] -0.003 | duvelisib 0.022 | gandotinib -0.053 | tozasertib -0.024 | [4] -0.018 | doramapimod -0.032 | ispinesib 0.065

DCTN3 (UniProt O75935)
inactive: [1] -0.003 | crizotinib 0.08 | [2] 0.104 | [3] 0.022 | duvelisib 0.022 | gandotinib -0.016 | tozasertib 0.022 | [4] 0.043 | doramapimod -0.029 | ispinesib -0.015

CSTF2T (UniProt Q9H0L4)
inactive: [1] -0.002 | crizotinib 0.048 | [2] 0.148 | [3] 0.059 | duvelisib 0.028 | gandotinib -0.005 | tozasertib 0.036 | [4] -0.057 | doramapimod 0.022 | ispinesib 0.046

DAGLB (UniProt Q8NCG7)
inactive: [1] -0.049 | crizotinib 0.008 | [2] 0.023 | [3] -0.072 | duvelisib 0.016 | gandotinib 0.068 | tozasertib 0.046 | [4] 0.035 | doramapimod -0.015 | ispinesib 0.053

CTPS1 isoform 2 (UniProt P17812)
inactive: [1] -0.368

Random excerpt: three records from the list, in no set order.
DCTN3 (UniProt O75935)
inactive: [1] -0.003 | crizotinib 0.08 | [2] 0.104 | [3] 0.022 | duvelisib 0.022 | gandotinib -0.016 | tozasertib 0.022 | [4] 0.043 | doramapimod -0.029 | ispinesib -0.015

CSTF2T (UniProt Q9H0L4)
inactive: [1] -0.002 | crizotinib 0.048 | [2] 0.148 | [3] 0.059 | duvelisib 0.028 | gandotinib -0.005 | tozasertib 0.036 | [4] -0.057 | doramapimod 0.022 | ispinesib 0.046

CUTC (UniProt Q9NTM9)
inactive: [1] 0.036 | crizotinib -0.005 | [2] 0.011 | [3] -0.003 | duvelisib 0.022 | gandotinib -0.053 | tozasertib -0.024 | [4] -0.018 | doramapimod -0.032 | ispinesib 0.065

Later entries.

CYHR1 (UniProt E9PJD7)
inactive: [1] 0.035 | crizotinib 0.001 | [2] 0.111 | [3] -0.015 | duvelisib -0.076 | gandotinib -0.064 | tozasertib -0.007 | [4] -0.056 | doramapimod -0.045 | ispinesib 0.052

CTU2 (UniProt Q2VPK5)
inactive: [1] 0.032 | crizotinib -0.07 | [2] 0.105 | [3] -0.043 | duvelisib -0.016 | gandotinib -0.089 | tozasertib 0.004 | [4] 0.023 | doramapimod 0.088 | ispinesib -0.036

CT45A10 (UniProt P0DMU9)
inactive: [1] -0.06 | crizotinib 0.038 | [2] -0.348 | [3] 0 | duvelisib -0.175 | gandotinib 0.154 | tozasertib -0.042 | [4] 0.166 | doramapimod 0.17 | ispinesib -0.078

DCK (UniProt P27707)
inactive: [1] 0.039 | crizotinib 0.117 | [2] -0.052 | [3] -0.065 | duvelisib -0.006 | gandotinib 0.146 | tozasertib -0.032 | [4] -0.046 | doramapimod -0.002 | ispinesib 0.077

CYB5R1 (UniProt Q9UHQ9)
inactive: [1] 0.032 | crizotinib 0.043 | [2] 0.042 | [3] -0.012 | duvelisib 0.025 | gandotinib -0.043 | tozasertib -0.004 | [4] -0.013 | doramapimod -0.066 | ispinesib -0.014

CTIF isoform 2 (UniProt O43310)
inactive: [1] 0.003 | crizotinib -0.076 | [2] -0.049 | [3] -0.067 | duvelisib 0.062 | gandotinib 0.018 | tozasertib 0.013 | [4] -0.046 | doramapimod 0.06 | ispinesib 0.097

CTNND1 (UniProt O60716)
inactive: [1] -0.005 | crizotinib -0.078 | [2] -0.295 | [3] 0.432 | duvelisib -0.06 | gandotinib 0.099 | tozasertib 0.039 | [4] 0.044 | doramapimod 0.084 | ispinesib -0.297

CST3 (UniProt P01034)
inactive: [1] -0.147 | crizotinib 0.206 | [2] -0.036 | [3] 0.017 | duvelisib 0.052 | gandotinib 0.017 | tozasertib 0.041 | [4] -0.068 | doramapimod 0.07 | ispinesib 0.159

DBI isoform 5 (UniProt P07108)
inactive: [1] 0.027 | crizotinib 0.188 | [2] 0.139 | [3] -0.028 | duvelisib 0.135 | gandotinib 0.116 | tozasertib 0.049 | [4] -0.013 | doramapimod 0.031 | ispinesib 0.122

CYCS (UniProt P99999)
inactive: [1] -0.025 | crizotinib 0.089 | [2] 0.03 | [3] -0.043 | duvelisib -0.011 | gandotinib 0.036 | tozasertib -0.014 | [4] -0.095 | doramapimod -0.013 | ispinesib 0.006

CWC15 (UniProt Q9P013)
inactive: [1] -0.001 | crizotinib 0.094 | [2] 0.045 | [3] 0.007 | duvelisib 0.004 | gandotinib 0.022 | tozasertib -0.089 | [4] -0.085 | doramapimod 0.01 | ispinesib -0.023

CTTN (UniProt Q14247)
inactive: [1] 0.011 | crizotinib 0.02 | [2] 0.043 | [3] -0.076 | duvelisib 0.019 | gandotinib 0.006 | tozasertib 0.022 | [4] -0.046 | doramapimod -0.001 | ispinesib 0.04

CTPS2 (UniProt Q9NRF8)
inactive: [1] 0.019 | crizotinib 0.031 | [2] 0.028 | [3] -0.047 | duvelisib 0.056 | gandotinib -0.007 | tozasertib -0.03 | [4] -0.021 | doramapimod -0.037 | ispinesib 0.059

CYB5B, A0A499FJ32
inactive: [1] -0.02 | crizotinib 0.086 | [2] 0.476 | [3] 0.138 | duvelisib 0.104 | gandotinib -0.061 | tozasertib 0.009 | [4] -0.068 | doramapimod 0.026 | ispinesib 0.07
